From publication PMC7819943, “Rice protein-binding microarrays: a tool to detect cis-acting elements near promoter regions in rice”
The list shows a part of the results.

Amino acid sequences for entries named in this document (tags omitted).
UniProt Q0JBA9, entry or part of it: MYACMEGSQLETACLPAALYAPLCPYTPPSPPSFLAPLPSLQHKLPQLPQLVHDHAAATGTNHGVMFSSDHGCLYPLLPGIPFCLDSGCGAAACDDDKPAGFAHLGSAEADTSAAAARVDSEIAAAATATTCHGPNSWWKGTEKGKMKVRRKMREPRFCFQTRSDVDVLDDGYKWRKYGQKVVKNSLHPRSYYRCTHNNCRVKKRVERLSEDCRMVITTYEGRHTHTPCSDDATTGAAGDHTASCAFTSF

Molecular target: OsWRKY34 (Oryza sativa, UniProt Q0JBA9 1-250)
Assay: protein-binding microarray (RPBM); PBS, 2% BSA, 51.3 ng/ul salmon testes DNA, 50 uM zinc acetate, 200 nM TF, 25 C, 1 h; high values mean tight binding
Conditions: protein: recombinant; tags: N-terminal polyhistidine and DsRed monomer fusion (pET32a); label: CyDye5-dUTP incorporated in the synthesized complementary strand; 3' TTTTT single-stranded linker to array surface; dsDNA, one strand shown
How it was run: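 In PBS with 2% BSA, salmon testes DNA and 50 µM zinc acetate, 200 nM protein was incubated on a custom Agilent array at 25 °C for 1 h and then washed off. The array had been made double-stranded by primer extension with Cy5-dUTP and blocked with 2% BSA. The proteins were transcription factors fused N-terminally to polyhistidine and DsRed, expressed in E. coli BL21-CodonPlus and purified on Ni–NTA. The binding signal is per-feature fluorescence intensity (arbitrary units) from an Axon 4000B scanner.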

Question: Which binding signal does the source give for “GCCGCCGCCTCCGCCGCCAGCCTCGCCACCTCCTGCGCCGCGGAGTCACCTAGTGCAG” here?
Answer: 9060 fluorescence intensity (a.u.)

Question: For “AAGAAGTGGTACATATCGTTTTATCTCCATGCATTTCATCCGGAGTCACCTAGTGCAG”, which binding signal is on record?
Answer: 9700 fluorescence intensity (a.u.)

Question: How did the binding signal turn out when “TATTTCCCAATCTCAATAGTCAATAGTATACTTCTTCTCTCGGAGTCACCTAGTGCAG” was run?
Answer: 8840 fluorescence intensity (a.u.)

Question: For “TGTCCGCCTTTGATCTCGCTCAAATTCTTCCCAGCCTTATCGGAGTCACCTAGTGCAG”, which binding signal is on record?
Answer: 9870 fluorescence intensity (a.u.)

Question: “AACATATAAACTCAAATCTCCAATTGTTTCCGCTACAAATCGGAGTCACCTAGTGCAG” was tested. Which binding signal did it give?
Answer: 8100 fluorescence intensity (a.u.)

Question: How did the binding signal turn out when “AGGAGGGGCAAAAATTAATGTGTAGGTAAAACTTTTATATCGGAGTCACCTAGTGCAG” was run?
Answer: 11000 fluorescence intensity (a.u.)

Question: With “CGCCCTTCTACCCGGACGACCTCGCTGACTTGCCCGACCACGGAGTCACCTAGTGCAG” as the sequence, how does the binding signal read?
Answer: 8970 fluorescence intensity (a.u.)

Question: For “GCGGGTTTCGTTTTCTCACTCGCTTGCTTAGCTCGATTGCCGGAGTCACCTAGTGCAG”, which binding signal is on record?
Answer: 10400 fluorescence intensity (a.u.)

Question: For “TTCTCTCTCTCGATCGAACAGGGGTAGGGAAGCGATTAACCGGAGTCACCTAGTGCAG”, which binding signal is on record?
Answer: 8460 fluorescence intensity (a.u.)

Question: With “TTTTTATTCGTTGCTATGCATCATGCTTGATCCTTGCTCACGGAGTCACCTAGTGCAG” as the sequence, how does the binding signal read?
Answer: 9440 fluorescence intensity (a.u.)

Question: “AACCCTGATTTCCGTGCTCAACGTTTGACCGTCCGTCTTGCGGAGTCACCTAGTGCAG” was tested. Which binding signal did it give?
Answer: 12600 fluorescence intensity (a.u.)

Question: For “GTCGAGCCCAATCCTCCGCCTGTACTTCATCTCCTTCAGACGGAGTCACCTAGTGCAG”, which binding signal is on record?
Answer: 10100 fluorescence intensity (a.u.)

Question: “CCGTTCTCCAGATCCGCACCGCCACCGCCGCCGCCGCGCGCGGAGTCACCTAGTGCAG” was tested. Which binding signal did it give?
Answer: 9490 fluorescence intensity (a.u.)

Question: Which binding signal does the source give for “GATTTGTTTCATTGTTCTGATTTGGTTTTGATTTTGATTTCGGAGTCACCTAGTGCAG” here?
Answer: 9520 fluorescence intensity (a.u.)

Question: Which binding signal does the source give for “AGCCAATACTTTCTGGAGCTTTCGTACATTGTGCCTTGTGCGGAGTCACCTAGTGCAG” here?
Answer: 8440 fluorescence intensity (a.u.)

Question: “GTCCGAGTCTCTTTTCATCATTTCGTCTGCCAACGCAAACCGGAGTCACCTAGTGCAG” was tested. Which binding signal did it give?
Answer: 9120 fluorescence intensity (a.u.)

Question: For “TGGCCCACGCGCGCCTCATCGTCGCCAGCCACGGCAGCTTCGGAGTCACCTAGTGCAG”, which binding signal is on record?
Answer: 8770 fluorescence intensity (a.u.)

Question: How did the binding signal turn out when “TCAAACCTTCCGGTAGAGCTGCACTTTCTCATGTTTTTTTCGGAGTCACCTAGTGCAG” was run?
Answer: 11600 fluorescence intensity (a.u.)

Question: “AGAGAGATAGTGGTGGTGGTGGTGGGGCACTGAGAATCCACGGAGTCACCTAGTGCAG” was tested. Which binding signal did it give?
Answer: 8080 fluorescence intensity (a.u.)

Question: How did the binding signal turn out when “TCCTCTTCAATCTTTCATTCGACCGTTGCATTGACATCCTCGGAGTCACCTAGTGCAG” was run?
Answer: 9180 fluorescence intensity (a.u.)

Question: “GGGATTTCTCGCAAAACGACGCCCACTAATCCAGACCCCTCGGAGTCACCTAGTGCAG” was tested. Which binding signal did it give?
Answer: 8250 fluorescence intensity (a.u.)

Question: “GTGCTCCATGCTCCAAGCCGCATCCGCGTCTCTCGTCACGCGGAGTCACCTAGTGCAG” was tested. Which binding signal did it give?
Answer: 9070 fluorescence intensity (a.u.)

Question: With “CAGACTGAAATGTATTTGCTGTACCCGTCCTTGGTTACTTCGGAGTCACCTAGTGCAG” as the sequence, how does the binding signal read?
Answer: 8660 fluorescence intensity (a.u.)

Question: “TACTTATTTCGTTATATTGAGGCCACATCCAAATCCAGTTCGGAGTCACCTAGTGCAG” was tested. Which binding signal did it give?
Answer: 8670 fluorescence intensity (a.u.)

Question: Which binding signal does the source give for “CTCGTTTCTTTCGCGTGAACGCCGAGTCTTCTCTGAATTCCGGAGTCACCTAGTGCAG” here?
Answer: 13000 fluorescence intensity (a.u.)

Question: With “AGGAGAGATGGCCACCACTACACTCTCCATTGTCCCACTCCGGAGTCACCTAGTGCAG” as the sequence, how does the binding signal read?
Answer: 8390 fluorescence intensity (a.u.)

Question: “TGGTTTGCGGTGGTGCGCGCGCGGCTTCTTCTCGGGGTGGCGGAGTCACCTAGTGCAG” was tested. Which binding signal did it give?
Answer: 9070 fluorescence intensity (a.u.)

Question: For “TGTCACATCACATCGATCATTGATTTCACTTTGATTCCTCCGGAGTCACCTAGTGCAG”, which binding signal is on record?
Answer: 9370 fluorescence intensity (a.u.)

Question: Which binding signal does the source give for “GGTCCGCGCGCTCGTGTATAAATAGGCCCGGCCGGTCGCGCGGAGTCACCTAGTGCAG” here?
Answer: 8840 fluorescence intensity (a.u.)

Question: With “CACTTTTTTGTTTGCCGCTCGTTGATTTCATTAGCGAGTTCGGAGTCACCTAGTGCAG” as the sequence, how does the binding signal read?
Answer: 9190 fluorescence intensity (a.u.)

Question: “CCAACCCCACCACCACACACATCCATCCTCACGACGCCCTCGGAGTCACCTAGTGCAG” was tested. Which binding signal did it give?
Answer: 8500 fluorescence intensity (a.u.)

Question: Which binding signal does the source give for “CGTCAATCCGCCTTGCATTTCGCCACCCTCTATCTCGCCGCGGAGTCACCTAGTGCAG” here?
Answer: 9120 fluorescence intensity (a.u.)

Question: “TCTTTAATATCACGTTTGACCATTTGTTCTATTCAAAAATCGGAGTCACCTAGTGCAG” was tested. Which binding signal did it give?
Answer: 11200 fluorescence intensity (a.u.)

Question: How did the binding signal turn out when “GGAAGGAGTGTGTTTCGTGTGCTGTGCTGGGCTCGCGCGGCGGAGTCACCTAGTGCAG” was run?
Answer: 8990 fluorescence intensity (a.u.)

Question: How did the binding signal turn out when “TTCTCCTGTGCTTTGACCACGACCTCTCATTTGGCCACTTCGGAGTCACCTAGTGCAG” was run?
Answer: 11200 fluorescence intensity (a.u.)

Question: For “TCATGGATTATCTCTTTAATGTATAACGCCGTTGACTTTTCGGAGTCACCTAGTGCAG”, which binding signal is on record?
Answer: 14300 fluorescence intensity (a.u.)

Question: For “TCACTTGGGGTGGGTGATAAGATACAATCTGTTAGACGTGCGGAGTCACCTAGTGCAG”, which binding signal is on record?
Answer: 9190 fluorescence intensity (a.u.)

Question: “CCATCACTCCGTTCATTAGACCTGTCCCATTGTCCAAGCTCGGAGTCACCTAGTGCAG” was tested. Which binding signal did it give?
Answer: 8770 fluorescence intensity (a.u.)

Question: How did the binding signal turn out when “CTCTTTTTTGGATCAGCGCCATGTTCTCTCCTCTCTCTCTCGGAGTCACCTAGTGCAG” was run?
Answer: 8960 fluorescence intensity (a.u.)

Question: How did the binding signal turn out when “TCCGCCTATAAATTCTTGCCACTTCTGTCGATCGCCGCGGCGGAGTCACCTAGTGCAG” was run?
Answer: 10200 fluorescence intensity (a.u.)

Question: With “TCTTAGGTGGTCAATGCGTATGTTTCGGTGGTGTTTGGATCGGAGTCACCTAGTGCAG” as the sequence, how does the binding signal read?
Answer: 8370 fluorescence intensity (a.u.)

Question: “GTGTGGGCGTGCATGAGATCGCTCCATGTGTTGAACTGTTCGGAGTCACCTAGTGCAG” was tested. Which binding signal did it give?
Answer: 8370 fluorescence intensity (a.u.)
